These are yes or no findings as the source states them, for the method shown. In cells and extracts the contact can be indirect. These calls come from enrichment with a bait or labelling near it, and not all partners need be listed.
Target: FLAG-HA-tagged PTEN (UniProt P60484)
Assay: affinity purification with mass spectrometry; HeLa cells stably expressing FLAG-HA-PTEN or empty vector; nocodazole 100 nM 8 h (methods) or 8 h release from double thymidine block; nuclear fractions; sequential anti-FLAG M2 and anti-HA agarose, peptide elution; 125 kDa band analysed by MS

The chains behind the UniProt entries cited, without tags or fusion partners.
UniProt P60484: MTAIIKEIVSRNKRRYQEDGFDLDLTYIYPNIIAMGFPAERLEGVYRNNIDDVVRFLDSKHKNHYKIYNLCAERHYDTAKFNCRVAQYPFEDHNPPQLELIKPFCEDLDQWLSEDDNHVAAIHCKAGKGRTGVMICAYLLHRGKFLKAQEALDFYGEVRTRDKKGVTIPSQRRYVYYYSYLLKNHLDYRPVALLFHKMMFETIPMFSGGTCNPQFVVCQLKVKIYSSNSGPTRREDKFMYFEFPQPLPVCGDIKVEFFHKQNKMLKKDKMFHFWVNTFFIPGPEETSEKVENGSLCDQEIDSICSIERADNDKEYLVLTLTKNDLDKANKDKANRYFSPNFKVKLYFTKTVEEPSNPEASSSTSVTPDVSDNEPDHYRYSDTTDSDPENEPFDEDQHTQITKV
UniProt P52732: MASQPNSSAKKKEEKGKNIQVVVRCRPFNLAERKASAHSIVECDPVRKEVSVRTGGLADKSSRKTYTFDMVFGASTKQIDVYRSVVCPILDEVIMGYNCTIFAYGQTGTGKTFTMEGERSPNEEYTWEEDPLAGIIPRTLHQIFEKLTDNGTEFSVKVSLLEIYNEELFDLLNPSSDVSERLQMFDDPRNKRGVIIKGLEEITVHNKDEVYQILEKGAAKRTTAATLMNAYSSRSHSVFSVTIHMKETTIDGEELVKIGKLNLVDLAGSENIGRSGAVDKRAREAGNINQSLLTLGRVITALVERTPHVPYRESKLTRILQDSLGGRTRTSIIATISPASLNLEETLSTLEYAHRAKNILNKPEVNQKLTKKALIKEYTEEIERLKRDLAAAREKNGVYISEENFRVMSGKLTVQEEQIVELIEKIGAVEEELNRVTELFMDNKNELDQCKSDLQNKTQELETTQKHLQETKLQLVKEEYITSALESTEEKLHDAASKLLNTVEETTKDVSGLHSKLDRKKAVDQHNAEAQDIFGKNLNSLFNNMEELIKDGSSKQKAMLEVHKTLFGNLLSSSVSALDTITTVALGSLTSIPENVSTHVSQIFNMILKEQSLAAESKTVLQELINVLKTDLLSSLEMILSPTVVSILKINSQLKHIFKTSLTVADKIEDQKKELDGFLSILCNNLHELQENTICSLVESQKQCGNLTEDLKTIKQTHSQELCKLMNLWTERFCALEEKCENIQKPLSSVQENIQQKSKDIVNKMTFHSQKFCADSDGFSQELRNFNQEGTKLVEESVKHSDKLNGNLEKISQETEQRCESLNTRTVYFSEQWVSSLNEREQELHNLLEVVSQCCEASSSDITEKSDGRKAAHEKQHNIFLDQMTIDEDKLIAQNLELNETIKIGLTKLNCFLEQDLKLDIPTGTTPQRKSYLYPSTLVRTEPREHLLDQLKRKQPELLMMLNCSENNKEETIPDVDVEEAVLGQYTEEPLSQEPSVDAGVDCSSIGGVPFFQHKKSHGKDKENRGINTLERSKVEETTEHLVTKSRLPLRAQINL

- binding: binds
Substance: EG5 (endogenous, HeLa) (from UniProt P52732 1-1056)

From publication PMC4980451
